# From paper PMC12677607, “Identification of a Pair of Linear or Cyclic Naturally Inspired Bifunctional Lipopeptide Antibiotics That Overcome Antimicrobial Resistance” (Advanced Science, 2025)
# Bridge positions count the residues as written; N and C are the ends. Square brackets hold non-standard residues; d marks the D form. Peptide text beside a SMILES is read from it. * marks the point of attachment. Myristoyl = CCCCCCCCCCCCCC(=O)*; Orn = NCCC[C@H](N)C(=O)O; Dab = NCC[C@H](N)C(=O)O; Dap = NC[C@H](N)C(=O)O
# Experiment: Isothermal titration calorimetry
# Format: binding, Escherichia coli O55:B5
# Conditions: Table S12; ITC, in H2O
# Protocol: Calorimetric experiments were performed to evaluate the interaction between CL, PE, PG, or LPS and aquicidine L or aquicidine C4. To determine the affinity between aquicidine L or aquicidine C4 and CL, PE, or PG, both 2 mM CL, PE, or PG and 0.2 mM aquicidine L or aquicidine C4 were dissolved in 20 mM HEPES buffer (pH 7.5). To determine the interaction between LPS and aquicidine L or aquicidine C4, 2 mM LPS and 0.2 mM aquicidine L or aquicidine C4 were dissolved in H2O. Sequential injections of CL, PE, PG, or LPS into the calorimetric cell filled with aquicidine L or aquicidine C4 were repeated 20 times with equilibration intervals of 200 s. Data were collected by using a MicroCal PEAQ‐ITC instrument and calculated for the equilibrium dissociation constant (KD), change of enthalpy (ΔH), and change of entropy […].
Structure (SMILES),"ΔG (kcal/mol), LPS [kcal/mol]","ΔH (kcal/mol), LPS [kcal/mol]","ΔS (kcal/mol/K), LPS [kcal/mol/K]"
CCCCCCCCCCCCCC(=O)N[C@@H](CN)C(=O)N[C@H](C(=O)N[C@@H](CC(C)C)C(=O)N[C@H]1COC(=O)[C@H](Cc2ccccc2)NC(=O)[C@H](CC(N)=O)NC(=O)[C@H](CCCN)NC(=O)[C@H]([C@@H](C)CC)NC(=O)[C@H](Cc2ccccc2)NC(=O)[C@H](CN)NC(=O)[C@H](CCN)NC1=O)[C@@H](C)O [synAQU5-C4] (Myristoyl-[Dap]TLS[Dab][Dap]FI[Orn]NF; ester 4-C),-7.59,-1.93,0.019
CCCCCCCCCCCCCC(=O)N[C@@H](CN)C(=O)N[C@H](C(=O)N[C@@H](CC(C)C)C(=O)N[C@@H](CO)C(=O)N[C@@H](CCN)C(=O)N[C@@H](CN)C(=O)N[C@@H](Cc1ccccc1)C(=O)N[C@H](C(=O)N[C@@H](CCCN)C(=O)N[C@@H](CC(N)=O)C(=O)N[C@@H](Cc1ccccc1)C(=O)O)[C@@H](C)CC)[C@@H](C)O [synAQU5-L] (Myristoyl-[Dap]TLS[Dab][Dap]FI[Orn]NF-OH),-9.85,-0.91,0.030
